According to PubChem BioAssay AID445 (National Center for Advancing Translational Sciences (NCATS), 2006):
This is one part of the list. The main result of the screen is listed elsewhere. These columns were measured beside it and carry no call. Most of these compounds were active or inconclusive in the main read-out, so they are no random draw. Words in brackets tell the shape of the fitted curve; partial curves, single points and poor fits give uncertain potencies.

Assay: IkB Signaling
Conditions: ABC-DLBCL IkBa-CBG/CBR dual luciferase ratio (green luciferase fused to IkBa over red control in OCI-Ly3 lymphoma cells), 4 h
Procedure, shortened: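 Luminescence ratio of IκBα-fused green versus native red beetle luciferase in OCI-Ly3 cells, 4 h post-doxycycline with compound; red signal alone, scaled from basal (0%) to zero light (-100%), flagged nonspecific or cytotoxic effects.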

[1] = measured here: control luc red channel unless noted

Cc1ccccc1NC(=O)CN(c1ccc(Cl)cc1Cl)S(=O)(=O)c1ccccc1
AC50 [1]: 12.6 µM [falling, partial curve]

C[C@@]12C(=O)OC(=O)[C@@]1(C)[C@@H]1CC[C@@H]2O1
AC50 [1]: 31.6 µM [falling, partial curve]

COc1ccc(-c2nc3sc(CCNC(=O)c4ccccc4C)c(C)n3n2)cc1
AC50 [1]: 39.8 µM [falling, single point]

CC(CNC(=O)CCS(=O)(=O)c1ccc2c(c1)oc(=O)n2C)c1ccccc1 (stereo not drawn)
AC50 [1]: 31.6 µM [falling, single point]

COc1cccc2sc(N3CCN(C(=O)CCS(=O)(=O)c4ccc(F)cc4)CC3)nc12
AC50 [1]: 15.8 µM [falling, partial curve]

COc1ccc(C(c2nnnn2C2CCCC2)N2CCC(C)CC2)c(OC)c1 (stereo not drawn)
AC50 [1]: 15.8 µM [falling, partial curve]

Cc1ccc(CNC(=O)C(=O)NCC(c2cccnc2)N2CCN(c3ccccc3F)CC2)cc1 (stereo not drawn)
AC50 [1]: 15.8 µM [falling, partial curve]

Cc1ccc(NC(=O)Cn2nnc(C(=O)NCCc3ccccc3)c2N)cc1C
AC50 [1]: 0.2 µM [falling, partial curve, poor fit]

Cc1ccc(C(=O)Nc2nc(-c3ccccc3)ns2)cc1
AC50 [1]: 39.8 µM [rising, single point] [measured here: IkB-luc green channel]

CCc1ccc(C2NC(=O)c3[nH]nc(-c4cccc(OC)c4)c32)cc1 (stereo not drawn)
AC50 [1]: 25.1 µM [falling, single point]

O=C(C1CCN(S(=O)(=O)c2cccnc2)CC1)N1CCN(c2ccccc2Cl)CC1
AC50 [1]: 39.8 µM [falling, single point]

COc1ccccc1CC(=O)Nc1ccc2nc(N3CCC(C)CC3)cc(C)c2c1
AC50 [1]: 20 µM [falling, partial curve]

CCc1ccc(-n2c(CCC(=O)O)ccc2-c2ccc(F)cc2)cc1
AC50 [1]: 20 µM [falling, partial curve]

COc1cc2c(=O)n(CCC(=O)NCC3CCCO3)c(=O)n(CC(=O)Nc3ccc(F)cc3)c2cc1OC (stereo not drawn)
AC50 [1]: 1 µM [falling, partial curve]

CC(=NC1CCCCC1)C1=C(O)c2ccccc2C1=O
AC50 [1]: 20 µM [falling, partial curve]

Cc1ccc(O)c(NC(=O)CCS(=O)(=O)c2nc(-c3ccc4c(c3)OCO4)cc(C(F)(F)F)n2)c1
AC50 [1]: 6.31 µM [falling, partial curve]

Cc1c(C(=O)NCc2ccc3c(c2)OCO3)oc2ccc(S(=O)(=O)N3CCCC3)cc12
AC50 [1]: 10 µM [falling, partial curve]

CCc1ccc(CNC(=O)CCn2c(=O)c3cccn3c3ccc(F)cc32)cc1
AC50 [1]: 39.8 µM [falling, single point]

CCOc1ccccc1NC(=O)COc1ccc(S(=O)(=O)NC2CCCCC2)cc1
AC50 [1]: 20 µM [falling, single point]

NC(=O)c1oc2ccccc2c1NC(=O)c1nc2ccccc2s1
AC50 [1]: 6.31 µM [falling, partial curve]

O=C(Nc1ccc(F)c(F)c1)C1CCCN1S(=O)(=O)c1cccc2nsnc12 (stereo not drawn)
AC50 [1]: 2 µM [rising, partial curve, poor fit]

O=S(=O)(c1ccccc1)c1nc(-c2ccc(F)cc2)oc1N1CCCCCC1
AC50 [1]: 39.8 µM [falling, single point]

COc1ccc(-c2cc(-c3ccc(OC)cc3)[nH]n2)cc1
AC50 [1]: 20 µM [falling, partial curve]

CCOC(=O)c1ccc(-c2ccc(/C=C(\C#N)C(=O)Nc3ccc(C)cc3OC)o2)cc1
AC50 [1]: 1 µM [falling, full curve]

CCCCN1C(=O)C(O)(c2c(C)[nH]c3ccccc23)c2ccccc21 (stereo not drawn)
AC50 [1]: 15.8 µM [falling, single point]

COCCNC(=O)Cn1ncc2c(C)n(Cc3ccc(C)cc3)c(C)c2c1=O
AC50 [1]: 31.6 µM [falling, single point]

CCOc1ccc(C(=O)c2cn(Cc3ccc(F)cc3)c3ccc(F)cc3c2=O)cc1
AC50 [1]: 25.1 µM [falling, partial curve]

Cc1cccc(-n2ncc3c(N4CCCCCC4)ncnc32)c1
AC50 [1]: 31.6 µM [falling, partial curve]

CC(C)(C)C(=O)OC1=CN(Cc2ccccc2)S(=O)(=O)c2ccccc21
AC50 [1]: 15.8 µM [falling, single point]

CCOc1ccc(C(=O)c2cn(CC(=O)Nc3cc(OC)ccc3OC)c3cc(OC)c(OC)cc3c2=O)cc1
AC50 [1]: 2.51 µM [rising, partial curve]

COc1ccc(-c2ccc(=O)n(CC(=O)NCCc3ccccc3)n2)cc1
AC50 [1]: 2.51 µM [rising, partial curve]

O=C(CN1C(=O)C2(SCC(=O)N2c2ccc(F)cc2)c2ccccc21)NCCc1ccccc1 (stereo not drawn)
AC50 [1]: 20 µM [falling, single point]

CCCCN(CCCC)C(=O)CSc1nnc(-c2cc(OC)c(OC)c(OC)c2)o1
AC50 [1]: 25.1 µM [falling, partial curve]

Cc1cc(C)cc(Nc2cc(C(=O)NCc3ccccc3)c3ccccc3n2)c1
AC50 [1]: 6.31 µM [falling, partial curve]

Nc1nc(Nc2ccccc2)nc2ccccc12
AC50 [1]: 31.6 µM [falling, single point]

Cc1cc(C)c(NC(=O)C(C)n2nnc3sc(-c4ccccc4)cc3c2=O)c(C)c1 (stereo not drawn)
AC50 [1]: 15.8 µM [falling, single point]

O=c1c2ccccc2nc(SCc2nnc(-c3ccccc3)o2)n1-c1ccccc1
AC50 [1]: 3.16 µM [falling, full curve, poor fit]

CC(=O)c1c(C)oc2ccc(N(C(=O)c3ccncc3)S(=O)(=O)c3ccc(C)cc3C)cc12
AC50 [1]: 10 µM [falling, partial curve]

COc1ccccc1NC(=O)C1=C(C)Nc2nc(SCc3ccccc3Cl)nn2C1c1ccncc1 (stereo not drawn)
AC50 [1]: 31.6 µM [rising, partial curve]

CCN(CC)S(=O)(=O)c1ccc(C(=O)NCCSc2c(-c3ccc(OC)cc3)[nH]c3ccccc23)cc1
AC50 [1]: 25.1 µM [falling, partial curve]

CCCCn1nc(NC(=O)c2cccs2)c2cc3cc(OC)ccc3nc21
AC50 [1]: 5.01 µM [falling, full curve]

COc1cccc(NC(=O)c2ccc(-c3nc(COc4ccc(C)cc4)c(C)o3)cc2)c1
AC50 [1]: 1.26 µM [falling, full curve, poor fit]

O=C(Nc1ccc(N2CCN(C(=O)c3ccccc3)CC2)c(Cl)c1)c1ccco1
AC50 (measured here: IkB-luc green channel): 12.6 µM [falling, partial curve]
AC50 (measured here: control luc red channel): 25.1 µM [falling, partial curve]

Nc1nc2ccccc2n1/N=C/c1ccc(-c2ccccc2)o1
AC50 [1]: 6.31 µM [falling, partial curve]

Cc1ccc2c(c1)c1c(c(=O)n(-c3ccccc3C)c(=O)n1CC(=O)NCC1CCCO1)n2C (stereo not drawn)
AC50 [1]: 3.16 µM [falling, full curve]

Cc1cc(=O)n2nc(N3CCC(C(=O)Nc4ccc(Br)cc4F)CC3)sc2n1
AC50 [1]: 12.6 µM [falling, partial curve]

O=C(CNC(=O)c1ccc(Cl)cc1)OCc1cc(=O)n2nc(C3CCCCC3)sc2n1
AC50 [1]: 2.51 µM [rising, partial curve, poor fit]

CCOC(=O)c1cccc(NC(=O)c2cc3cc4ccc(C)cc4nc3s2)c1
AC50 [1]: 0.0316 µM [falling, full curve, poor fit]

Cc1cccc(NC(=O)Cn2c(=O)n(CCC(=O)N3CCc4ccccc4C3)c(=O)c3ccccc32)c1
AC50 [1]: 5.01 µM [falling, full curve]

O=C(CCN1CCC(c2ccccc2)C1)c1cccs1 (stereo not drawn)
AC50 [1]: 15.8 µM [falling, partial curve]

Nc1c(C(=O)NCc2ccccc2)nnn1Cc1cccc(Br)c1
AC50 [1]: 1.58 µM [rising, full curve]

CCOC(=O)c1cc(-c2ccc(F)cc2)n(CCC(=O)NC2CCCCC2)c1C
AC50 [1]: 25.1 µM [falling, single point]

CCCCCCCNS(=O)(=O)c1cccc2c(Cl)cccc12
AC50 [1]: 39.8 µM [falling, partial curve]

CCOc1ccc(NC(=O)NCCN2CCN(c3ccccc3F)CC2)cc1
AC50 [1]: 39.8 µM [falling, partial curve, poor fit]

O=S(=O)(NCc1ccc(Cl)cc1)c1ccc(N2CCCCS2(=O)=O)cc1
AC50 [1]: 0.00631 µM [rising, full curve, poor fit]

COC(=O)c1ccccc1NC(=O)CN1C(=O)COc2ccccc21
AC50 [1]: 12.6 µM [falling, partial curve]

CCOC(=O)Nc1cccc(OCC(=O)Nc2ccccc2OC)c1
AC50 [1]: 31.6 µM [falling, single point]

CCOc1cc(C(=O)Nc2c(NC)c3ccccc3oc2=O)cc(OCC)c1OCC
AC50 [1]: 7.94 µM [falling, partial curve]

Cc1ccc(C)c(CN2C(=O)c3ccccc3Sc3ccc(C(=O)NC4CCCC4)cc32)c1
AC50 [1]: 1.58 µM [falling, full curve]

COc1ccc(NC(=O)c2c(C)oc3ccc(O)c(CN4CCCC(C)C4)c23)cc1Cl (stereo not drawn)
AC50 [1]: 20 µM [falling, partial curve]

COc1ccccc1-c1cn(S(=O)(=O)c2ccc(C)cc2)nc1N
AC50 [1]: 10 µM [falling, partial curve]

Cc1ccc(N2CCN(C(=O)CCc3c(C)nc4ncnn4c3C)CC2)c(C)c1
AC50 [1]: 31.6 µM [falling, partial curve]
